Cleaved PARP in drug-treated melanoma cells

From a melanoma drug combination screen (doi:10.1371/journal.pone.0140310); values rounded.

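The test systems are human melanoma cell lines, treated with two drugs together for 72 h and then stained and imaged. Values are the share of nuclei positive for cleaved PARP as a percentage of the same share in the DMSO control: 100 is the control level, higher means more apoptosis. Concentrations were fixed for each drug; these are the higher of two levels. No replicate spread is given; individual values may be noisy. The marker varies much from line to line, for technical or biological reasons.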
Only some of the drugs and lines screened are listed, without regard to their results.
A dash means that no value is listed here.

All values are for the listed drug together with cediranib (2000 nM): COc1cc2c(Oc3ccc4[nH]c(C)cc4c3F)ncnc2cc1OCCCN1CCCC1

Partner,COLO 792,UACC-62,MEL-HO,MZ2-MEL,WM3526,MeWo,SK-MEL-2,COLO 829,LOX IMVI
CCN(CC)CCNC(=O)c1c(C)[nH]c(/C=C2\C(=O)Nc3ccc(F)cc32)c1C at 2000 nM,416,166,80.3,81.8,265,188,208,60.4,145
Cn1c(Nc2ccc(C(F)(F)F)cc2)nc2cc(Oc3ccnc(-c4ncc(C(F)(F)F)[nH]4)c3)ccc21 at 400 nM,722,202,97.2,132,808,176,173,289,190
Nc1nc(F)nc2c1ncn2[C@@H]1O[C@H](CO)[C@@H](O)[C@@H]1O at 1000 nM,48.5,186,44.3,48.2,615,120,585,394,31.2
Cc1ccc(Nc2nccc(N(C)c3ccc4c(C)n(C)nc4c3)n2)cc1S(N)(=O)=O at 2000 nM,110,75.0,42.3,32.8,126,54.7,100,37.4,125
C#Cc1cccc(Nc2ncnc3cc(OCCOC)c(OCCOC)cc23)c1 at 4000 nM,393,138,80.9,77.5,101,131,55.9,111,352
CCCCCCCCCCCCCCCCCCOP(=O)([O-])OC1CC[N+](C)(C)CC1 at 2000 nM,152,97.5,69.2,94.1,108,39.4,28.9,54.0,90.8
CCCS(=O)(=O)Nc1ccc(F)c(C(=O)c2c[nH]c3ncc(Cl)cc23)c1F at 400 nM,76.6,289,165,-,132,101,-,176,164
OCCn1cc(-c2cnc3nnn(Cc4ccc5ncccc5c4)c3n2)cn1 at 5000 nM,160,71.6,33.3,185,61.5,67.0,108,198,199
COc1cc([C@@H]2c3cc4c(cc3[C@@H](O[C@@H]3O[C@@H]5CO[C@@H](C)O[C@H]5[C@H](O)[C@H]3O)[C@H]3COC(=O)[C@H]23)OCO4)cc(OC)c1O at 100 nM,160,131,32.2,172,101,147,140,95.1,260
Cn1cc(C2=C(c3cn(C4CCN(Cc5ccccn5)CC4)c4ccccc34)C(=O)NC2=O)c2ccccc21 at 4000 nM,156,208,55.1,89.1,163,80.3,247,100,152
Cc1cc(Nc2cc(N3CCN(C)CC3)nc(Sc3ccc(NC(=O)C4CC4)cc3)n2)n[nH]1 at 30 nM,83.1,232,88.3,419,160,97.5,146,81.9,147
COc1ccc(C2=N[C@@H](c3ccc(Cl)cc3)[C@@H](c3ccc(Cl)cc3)N2C(=O)N2CCNC(=O)C2)c(OC(C)C)c1 at 500 nM,131,121,66.8,67.9,116,56.3,78.0,60.4,145
CN(NC(=O)CC(=O)NN(C)C(=S)c1ccccc1)C(=S)c1ccccc1 at 30 nM,995,155,76.2,192,95.6,1940,31.7,214,103
Cc1cc(N2CCOCC2)cc2[nH]c(-c3c(NC[C@@H](O)c4cccc(Cl)c4)cc[nH]c3=O)nc12 at 1000 nM,371,93.9,38.1,257,277,133,86.7,78.0,177
CN1CCN(c2ccc3nc(-c4c(N)c5c(F)cccc5[nH]c4=O)[nH]c3c2)CC1 at 500 nM,258,176,223,413,143,270,160,189,132
O=C(Nc1ccccc1)c1cc([N+](=O)[O-])ccc1Cl at 10000 nM,58.3,58.3,46.4,118,201,143,114,129,84.8
O=C(O)c1ccc(-c2c[nH]c3ncc(-c4ccccc4)cc23)cc1C1CCCC1 at 800 nM,211,92.4,88.0,153,170,125,142,209,286
COc1ccc(-c2ccc3c(N4CCOCC4)nc(N4C[C@@H](C)O[C@@H](C)C4)nc3n2)cc1CO at 100 nM,87.5,127,138,55.9,413,60.4,152,51.5,146
CCc1ccc(CCOc2ccc(CC3SC(=O)NC3=O)cc2)nc1 (stereo not drawn) at 10000 nM,90.1,50.8,44.5,197,91.7,82.6,43.1,168,70.1
Nc1ccn([C@@H]2O[C@H](CO)[C@@H](O)C2(F)F)c(=O)n1 at 2 nM,344,131,225,69.6,128,164,67.6,134,236
Oc1nc(-c2ccc(C(F)(F)F)cc2)nc2c1CSCC2 at 10000 nM,140,72.2,48.3,117,32.2,89.1,134,12.8,54.3
COc1cc(Nc2ncc(F)c(Nc3ccc4c(n3)NC(=O)C(C)(C)O4)n2)cc(OC)c1OC at 2000 nM,379,152,218,117,200,124,119,210,220
Cc1ccc(NC(=O)c2cccc(N(C)C)c2)cc1NC(=O)c1ccc(O)cc1 at 10000 nM,86.5,130,132,130,107,75.8,61.4,169,167
Cn1cnc2c(F)c(Nc3ccc(Br)cc3Cl)c(C(=O)NOCCO)cc21 at 75 nM,89.0,193,78.9,231,81.5,167,193,83.9,133
COc1cc(N2CCC(N3CCN(C)CC3)CC2)ccc1Nc1ncc(Cl)c(Nc2ccccc2S(=O)(=O)C(C)C)n1 at 400 nM,72.2,377,68.2,55.0,222,105,135,91.4,299
Cc1nc(Nc2ncc(C(=O)Nc3c(C)cccc3Cl)s2)cc(N2CCN(CCO)CC2)n1 at 20 nM,320,151,142,267,276,143,51.0,568,1020
CCN(CC)CCCCNc1ncc2cc(-c3cc(OC)cc(OC)c3)c(NC(=O)NC(C)(C)C)nc2n1 at 500 nM,103,37.1,19.7,151,71.7,66.4,38.6,85.4,111
Nc1cccc2c1CN(C1CCC(=O)NC1=O)C2=O (stereo not drawn) at 5000 nM,199,96.6,146,-,75.5,40.3,-,159,53.8
CO[C@H]1C[C@@H]2CC[C@@H](C)[C@@](O)(O2)C(=O)C(=O)N2CCCC[C@H]2C(=O)O[C@H]([C@H](C)C[C@@H]2CC[C@@H](OCCO)[C@H](OC)C2)CC(=O)[C@H](C)/C=C(\C)[C@@H](O)[C@@H](OC)C(=O)[C@H](C)C[C@H](C)/C=C/C=C/C=C/1C at 100 nM,252,199,198,102,197,76.7,59.4,137,130
CO[C@@H]1[C@H](N(C)C(=O)c2ccccc2)C[C@H]2O[C@]1(C)n1c3ccccc3c3c4c(c5c6ccccc6n2c5c31)C(=O)NC4 at 400 nM,190,127,71.1,197,214,118,207,65.6,321
Cn1nnc2c(C(N)=O)ncn2c1=O at 10000 nM,107,134,71.4,48.8,51.1,70.1,50.6,278,90.4
COC(=O)c1sccc1S(=O)(=O)Nc1ccc(Nc2ccccc2)cc1OC at 5000 nM,85.3,122,92.4,74.2,61.3,81.4,97.9,103,52.3
COc1ccc(COc2ccc(Cc3cnc(N)nc3N)cc2OC)cc1 at 5000 nM,189,127,44.9,55.4,75.5,125,117,23.8,26.8
CC(=O)c1c(C)c2cnc(Nc3ccc(N4CCNCC4)cn3)nc2n(C2CCCC2)c1=O at 200 nM,130,180,77.8,89.0,24.9,91.0,134,39.4,98.3
C=CCNC1=C2C[C@@H](C)C[C@H](OC)[C@H](O)[C@@H](C)/C=C(\C)[C@H](OC(N)=O)[C@@H](OC)/C=C\C=C(/C)C(=O)NC(=CC1=O)C2=O at 10 nM,181,163,78.9,220,379,195,72.9,58.1,92.1
O=C(Oc1ccc([N+](=O)[O-])cc1)N1CCC(C(O)(c2ccc3c(c2)OCO3)c2ccc3c(c2)OCO3)CC1 at 5000 nM,122,64.3,41.7,191,114,49.0,89.2,95.8,43.0
O=C(Nc1cc(C(F)(F)F)cc(C(F)(F)F)c1)c1cc(Cl)ccc1O at 80 nM,120,140,77.6,37.4,109,157,31.6,28.0,511
Cc1cc([N+](=O)[O-])ccc1NS(=O)(=O)c1cc(Cl)ccc1Cl at 5000 nM,145,86.5,151,105,88.6,77.4,36.5,55.8,69.9

For reference, 4 entries once more:

Partner	COLO 792	UACC-62	MEL-HO	MZ2-MEL	WM3526	MeWo	SK-MEL-2	COLO 829	LOX IMVI
C=CCNC1=C2C[C@@H](C)C[C@H](OC)[C@H](O)[C@@H](C)/C=C(\C)[C@H](OC(N)=O)[C@@H](OC)/C=C\C=C(/C)C(=O)NC(=CC1=O)C2=O at 10 nM	181	163	78.9	220	379	195	72.9	58.1	92.1
COc1ccc(C2=N[C@@H](c3ccc(Cl)cc3)[C@@H](c3ccc(Cl)cc3)N2C(=O)N2CCNC(=O)C2)c(OC(C)C)c1 at 500 nM	131	121	66.8	67.9	116	56.3	78.0	60.4	145
O=C(Nc1cc(C(F)(F)F)cc(C(F)(F)F)c1)c1cc(Cl)ccc1O at 80 nM	120	140	77.6	37.4	109	157	31.6	28.0	511
CCCS(=O)(=O)Nc1ccc(F)c(C(=O)c2c[nH]c3ncc(Cl)cc23)c1F at 400 nM	76.6	289	165	-	132	101	-	176	164